Measured values published in PMC11765155.
Residue numbers refer to the chain shown, from its start. Results are given in words; binding and its absence hold for the method and conditions named. For some of these results: In cells and extracts the contact can be indirect. Some entries that bind do so weakly or less than the wild type. Where a sequence is shown, tags or fusion partners need not be part of it.

T1: C-terminal 3xmyc-tagged Hrr25 (Hrr25-myc) (S. cerevisiae) (UniProt P29295)
T1 sequence: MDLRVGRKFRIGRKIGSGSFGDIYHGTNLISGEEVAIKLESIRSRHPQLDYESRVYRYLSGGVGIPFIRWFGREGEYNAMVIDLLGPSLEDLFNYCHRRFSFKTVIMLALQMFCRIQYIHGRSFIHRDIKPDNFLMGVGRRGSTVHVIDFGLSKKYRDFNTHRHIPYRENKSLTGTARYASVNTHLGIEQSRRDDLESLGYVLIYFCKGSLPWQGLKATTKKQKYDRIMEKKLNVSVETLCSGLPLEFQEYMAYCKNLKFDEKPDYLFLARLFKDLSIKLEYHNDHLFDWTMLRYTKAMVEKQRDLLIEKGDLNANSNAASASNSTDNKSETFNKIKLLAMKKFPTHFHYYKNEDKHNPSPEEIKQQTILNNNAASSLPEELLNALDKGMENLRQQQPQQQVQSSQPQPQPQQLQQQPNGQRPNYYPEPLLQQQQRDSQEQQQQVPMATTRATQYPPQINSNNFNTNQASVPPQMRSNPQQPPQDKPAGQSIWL

T2: GBD-Hrr25 (Gal4 DNA-binding domain fused to Hrr25) (S. cerevisiae) (UniProt P29295)
T2 sequence: T1 sequence

T3: GBD-Hrr25(N) (Gal4 DNA-binding domain fused to the N-terminal kinase domain of Hrr25) (S. cerevisiae) (UniProt P29295)
T3 sequence: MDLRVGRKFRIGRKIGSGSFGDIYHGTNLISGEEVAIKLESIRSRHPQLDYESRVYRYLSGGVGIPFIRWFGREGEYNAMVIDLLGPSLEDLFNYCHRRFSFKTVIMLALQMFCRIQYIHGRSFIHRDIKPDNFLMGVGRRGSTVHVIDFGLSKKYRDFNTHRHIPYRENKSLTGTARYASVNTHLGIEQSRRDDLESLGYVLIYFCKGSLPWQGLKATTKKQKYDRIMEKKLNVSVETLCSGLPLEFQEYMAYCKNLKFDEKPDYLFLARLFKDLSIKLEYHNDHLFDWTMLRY

T4: GBD-Hrr25(K38A) (Gal4 DNA-binding domain fused to a kinase-dead mutant of Hrr25) (S. cerevisiae) (UniProt P29295)
T4 sequence: T1 sequence with K38A

B1: 3xHA-tagged Pin4 (Pin4-HA) (protein, UniProt P34217 1-668)
chain: METSSFENAPPAAINDAQDNNINTETNDQETNQQSIETRDAIDKENGVQTETGENSAKNAEQNVSSTNLNNAPTNGALDDDVIPNAIVIKNIPFAIKKEQLLDIIEEMDLPLPYAFNYHFDNGIFRGLAFANFTTPEETTQVITSLNGKEISGRKLKVEYKKMLPQAERERIEREKREKRGQLEEQHRSSSNLSLDSLSKMSGSGNNNTSNNQLFSTLMNGINANSMMNSPMNNTINNNSSNNNNSGNIILNQPSLSAQHTSSSLYQTNVNNQAQMSTERFYAPLPSTSTLPLPPQQLDFNDPDTLEIYSQLLLFKDREKYYYELAYPMGISASHKRIINVLCSYLGLVEVYDPRFIIIRRKILDHANLQSHLQQQGQMTSAHPLQPNSTGGSMNRSQSYTSLLQAHAAAAANSISNQAVNNSSNSNTINSNNGNGNNVIINNNSASSTPKISSQGQFSMQPTLTSPKMNIHHSSQYNSADQPQQPQPQTQQNVQSAAQQQQSFLRQQATLTPSSRIPSGYSANHYQINSVNPLLRNSQISPPNSQIPINSQTLSQAQPPAQSQTQQRVPVAYQNASLSSQQLYNLNGPSSANSQSQLLPQHTNGSVHSNFSYQSYHDESMLSAHNLNSADLIYKSLSHSGLDDGLEQGLNRSLSGLDLQNQNKKNLW
modifications: multi-phosphorylated in cells (sites not given)
B2: GAD-Pin4 (Gal4 activation domain fused to Pin4) (protein, UniProt P34217 1-668)
chain: B1 chain

Key:
[1] = target: T1, C-terminal 3xmyc-tagged Hrr25 (Hrr25-myc) (S. cerevisiae); assay: co-IP; yeast lysates in IP buffer (50 mM Tris-HCl pH 7.6, 100 mM NaCl, 0.1% Triton X-100); myc-tagged Hrr25 precipitated with anti-c-myc 9E10 and protein G-Sepharose at 4 °C; Pin4-HA detected by anti-HA immunoblot
[2] = target: T2, GBD-Hrr25 (Gal4 DNA-binding domain fused to Hrr25) (S. cerevisiae); assay: two-hybrid; GBD fusions in AH109 mated with GAD fusions in Y187; diploids on CSM with histidine (ADE2, colour), without histidine, or without histidine plus 1 mM 3-AT (HIS3)
[3] = target: T3, GBD-Hrr25(N) (Gal4 DNA-binding domain fused to the N-terminal kinase domain of Hrr25) (S. cerevisiae); assay: as above
[4] = target: T4, GBD-Hrr25(K38A) (Gal4 DNA-binding domain fused to a kinase-dead mutant of Hrr25) (S. cerevisiae); assay: as above

Row | Binder | binding [1] | binding [2] | binding [3] | binding [4]
1 | B1 | binds |  |  | 
2 | B2 |  | binds | no binding | binds
